The text below walks through data of publication doi:10.1101/2020.03.23.004119.

Chains of the proteins cited; added tags and fusions are not shown.
UniProt Q16877, whole entry: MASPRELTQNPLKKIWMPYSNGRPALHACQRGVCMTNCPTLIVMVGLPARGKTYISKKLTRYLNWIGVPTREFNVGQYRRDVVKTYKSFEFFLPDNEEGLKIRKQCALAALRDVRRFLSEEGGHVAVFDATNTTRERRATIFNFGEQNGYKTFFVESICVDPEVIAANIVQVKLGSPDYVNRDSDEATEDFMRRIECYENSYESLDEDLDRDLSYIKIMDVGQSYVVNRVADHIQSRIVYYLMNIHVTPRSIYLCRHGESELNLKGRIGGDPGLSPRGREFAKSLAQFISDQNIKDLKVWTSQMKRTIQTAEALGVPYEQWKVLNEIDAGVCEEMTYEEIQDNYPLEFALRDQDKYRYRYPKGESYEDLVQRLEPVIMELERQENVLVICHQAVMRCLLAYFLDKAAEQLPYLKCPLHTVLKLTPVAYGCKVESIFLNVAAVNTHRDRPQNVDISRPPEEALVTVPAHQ
UniProt O60725, whole entry: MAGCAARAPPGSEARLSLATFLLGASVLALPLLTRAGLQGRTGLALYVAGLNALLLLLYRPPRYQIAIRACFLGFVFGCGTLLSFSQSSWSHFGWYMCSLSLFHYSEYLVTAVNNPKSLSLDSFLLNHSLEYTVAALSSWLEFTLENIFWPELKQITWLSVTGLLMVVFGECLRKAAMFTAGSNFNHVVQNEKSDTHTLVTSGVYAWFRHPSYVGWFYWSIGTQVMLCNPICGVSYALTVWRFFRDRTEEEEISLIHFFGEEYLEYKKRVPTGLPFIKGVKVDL

Test [1] deals with FLAG-tagged human PFKFB4 (human) (UniProt Q16877). The test can be described thus: co-IP.
The target of test [2] is hPFKFB4 mammalian two-hybrid fusion (pBind-PFKFB4 and pAct-PFKFB4) (human) (UniProt Q16877). The test can be described thus: two-hybrid.

These are yes or no findings as the source states them, for the method shown. For some assays here: In cells and extracts the contact can be indirect. Some results given as binding are weak or reduced against the parent protein; the word gives no strength.

As to “ICMT tagged with V5 (from UniProt O60725 1-284) (enzyme)”, in test [1], the binding entry is “binds”.

For “hICMT fused to VP16 activation domain (pAct-ICMT) (from UniProt O60725 1-284) (enzyme)”, the binding result in test [2] is “binds”.
